Publication PMC6187632, “A glutaredoxin domain fused to the radical-generating subunit of ribonucleotide reductase (RNR) functions as an efficient RNR reductant” (The Journal of Biological Chemistry, 2018)

Sequences of proteins named here, by UniProt entry; tags and fusion partners are left off. A change or cut given only in a name is not applied to a line headed by its entry.
UniProt K1LAT4: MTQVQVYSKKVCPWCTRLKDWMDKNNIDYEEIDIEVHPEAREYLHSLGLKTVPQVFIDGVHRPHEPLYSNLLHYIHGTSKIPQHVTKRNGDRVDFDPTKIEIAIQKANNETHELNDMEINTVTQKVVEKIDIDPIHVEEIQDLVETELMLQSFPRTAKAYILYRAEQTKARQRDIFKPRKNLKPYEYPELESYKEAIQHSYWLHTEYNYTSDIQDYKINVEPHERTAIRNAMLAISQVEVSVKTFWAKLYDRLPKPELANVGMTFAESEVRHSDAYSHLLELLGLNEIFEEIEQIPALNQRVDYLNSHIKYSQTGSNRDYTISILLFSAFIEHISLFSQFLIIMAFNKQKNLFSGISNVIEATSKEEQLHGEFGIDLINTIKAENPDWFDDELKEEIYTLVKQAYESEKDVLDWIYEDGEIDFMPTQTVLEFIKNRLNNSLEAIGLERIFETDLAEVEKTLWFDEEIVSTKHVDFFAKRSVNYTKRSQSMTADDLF
UniProt K1MC37: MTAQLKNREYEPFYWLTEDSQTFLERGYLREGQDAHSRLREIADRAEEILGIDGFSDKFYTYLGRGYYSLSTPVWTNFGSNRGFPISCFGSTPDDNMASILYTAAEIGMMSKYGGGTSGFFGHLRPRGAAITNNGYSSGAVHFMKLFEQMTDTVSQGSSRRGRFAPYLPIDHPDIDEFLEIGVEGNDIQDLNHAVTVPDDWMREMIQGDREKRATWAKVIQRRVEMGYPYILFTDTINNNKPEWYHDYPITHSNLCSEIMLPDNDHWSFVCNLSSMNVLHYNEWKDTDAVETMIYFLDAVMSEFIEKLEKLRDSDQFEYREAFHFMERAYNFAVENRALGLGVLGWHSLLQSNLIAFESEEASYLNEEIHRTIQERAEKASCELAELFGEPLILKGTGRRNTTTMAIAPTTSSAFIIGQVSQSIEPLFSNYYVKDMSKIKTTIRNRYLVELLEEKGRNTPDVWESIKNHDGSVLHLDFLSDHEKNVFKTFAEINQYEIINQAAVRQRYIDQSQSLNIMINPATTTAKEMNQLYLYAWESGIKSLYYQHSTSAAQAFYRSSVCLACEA

Legend:
[1] = biological target: Facklamia ignava NrdB (Grx::ATP-cone::NrdB fusion protein, NrdBi) (Facklamia ignava) (UniProt K1LAT4); assay: SEC; Superdex 200 10/300, no effector; 50 mM KCl, 10 mM MgCl2, 0.1 mM DTT, 50 mM Tris-HCl pH 7.6, room temperature; NrdA 5 and 10 uM, NrdB 1.25-10 uM, mixture 10 uM of each; both purified
[2] = biological target: Facklamia ignava NrdB (Grx::ATP-cone::NrdB fusion protein, NrdBi) (Facklamia ignava) (UniProt K1LAT4); assay: GEMMA (gas-phase electrophoretic macromolecule analysis); no effector; 0.05 mg/ml protein (0.025 mg/ml of each in mixtures), 20 mM ammonium acetate pH 7.8, 1 mM DTT, 0.005% Tween 20, room temperature; both purified
[3] = biological target: Facklamia ignava NrdB (Grx::ATP-cone::NrdB fusion protein, NrdBi) (Facklamia ignava) (UniProt K1LAT4); assay: GEMMA (gas-phase electrophoretic macromolecule analysis); with 100 uM ATP and equimolar Mg acetate; 0.05 mg/ml protein (0.025 mg/ml of each in mixtures), 20 mM ammonium acetate pH 7.8, 1 mM DTT, 0.005% Tween 20, room temperature; both purified
[4] = biological target: Facklamia ignava NrdB (Grx::ATP-cone::NrdB fusion protein, NrdBi) (Facklamia ignava) (UniProt K1LAT4); assay: SEC; Superdex 200 10/300, 3 mM ATP in the mobile phase; 50 mM KCl, 10 mM MgCl2, 0.1 mM DTT, 50 mM Tris-HCl pH 7.6, room temperature; single subunits 5 and 10 uM, mixture 10 and 20 uM of each; both purified
[5] = biological target: Facklamia ignava NrdB (Grx::ATP-cone::NrdB fusion protein, NrdBi) (Facklamia ignava) (UniProt K1LAT4); assay: GEMMA (gas-phase electrophoretic macromolecule analysis); with 50 uM dATP and equimolar Mg acetate; 0.05 mg/ml protein (0.025 mg/ml of each in mixtures), 20 mM ammonium acetate pH 7.8, 1 mM DTT, 0.005% Tween 20, room temperature; both purified
[6] = biological target: Facklamia ignava NrdB (Grx::ATP-cone::NrdB fusion protein, NrdBi) (Facklamia ignava) (UniProt K1LAT4); assay: SEC; Superdex 200 10/300, 0.1 mM dATP in the mobile phase; 50 mM KCl, 10 mM MgCl2, 0.1 mM DTT, 50 mM Tris-HCl pH 7.6, room temperature; single subunits 5 and 10 uM, mixture 10 and 20 uM of each; both purified

binding [1]: binds
binding [2]: binds
binding [3]: binds
binding [4]: binds
binding [5]: binds
binding [6]: binds
Substance: Facklamia ignava NrdA (NrdAi) (from UniProt K1MC37) (enzyme)

These are yes or no findings as the source states them, for the method shown. A result given as binding can be weak or reduced; the word gives no strength.
